The values that follow come from PMC11610224.

Chains of the proteins cited; added tags and fusions are not shown.
UniProt Q9C0C7: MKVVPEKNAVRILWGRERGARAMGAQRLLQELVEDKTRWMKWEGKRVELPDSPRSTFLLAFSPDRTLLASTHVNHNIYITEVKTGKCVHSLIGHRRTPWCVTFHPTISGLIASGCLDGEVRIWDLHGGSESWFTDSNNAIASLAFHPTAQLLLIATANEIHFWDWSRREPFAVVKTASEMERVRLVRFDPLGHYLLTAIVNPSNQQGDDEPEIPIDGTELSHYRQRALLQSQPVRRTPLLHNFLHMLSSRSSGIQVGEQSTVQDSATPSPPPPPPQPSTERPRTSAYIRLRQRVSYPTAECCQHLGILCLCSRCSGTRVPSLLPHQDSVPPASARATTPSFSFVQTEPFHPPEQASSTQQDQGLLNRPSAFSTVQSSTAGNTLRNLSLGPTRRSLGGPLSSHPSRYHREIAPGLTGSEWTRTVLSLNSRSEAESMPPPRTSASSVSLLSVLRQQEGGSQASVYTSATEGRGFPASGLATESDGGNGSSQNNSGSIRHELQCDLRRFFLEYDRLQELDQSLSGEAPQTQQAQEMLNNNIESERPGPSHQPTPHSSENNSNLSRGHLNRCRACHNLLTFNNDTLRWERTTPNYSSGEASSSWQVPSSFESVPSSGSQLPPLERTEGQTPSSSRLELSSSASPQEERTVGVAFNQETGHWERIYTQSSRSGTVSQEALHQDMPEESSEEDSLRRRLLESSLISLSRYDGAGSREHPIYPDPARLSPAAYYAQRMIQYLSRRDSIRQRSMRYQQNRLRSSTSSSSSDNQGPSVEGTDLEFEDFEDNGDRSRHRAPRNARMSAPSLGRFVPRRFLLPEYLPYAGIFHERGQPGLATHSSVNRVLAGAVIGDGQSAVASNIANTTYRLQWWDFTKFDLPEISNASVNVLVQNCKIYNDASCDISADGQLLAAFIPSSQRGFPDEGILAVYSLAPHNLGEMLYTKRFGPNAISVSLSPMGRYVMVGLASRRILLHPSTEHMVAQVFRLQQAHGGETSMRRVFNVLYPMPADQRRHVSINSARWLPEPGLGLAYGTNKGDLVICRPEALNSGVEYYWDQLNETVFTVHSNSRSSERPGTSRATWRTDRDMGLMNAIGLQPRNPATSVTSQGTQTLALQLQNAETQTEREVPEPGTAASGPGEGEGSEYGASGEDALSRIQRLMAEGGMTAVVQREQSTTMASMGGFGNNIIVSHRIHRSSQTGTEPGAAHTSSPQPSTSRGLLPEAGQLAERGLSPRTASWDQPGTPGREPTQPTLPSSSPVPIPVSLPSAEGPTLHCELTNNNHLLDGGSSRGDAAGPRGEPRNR
UniProt Q86X40: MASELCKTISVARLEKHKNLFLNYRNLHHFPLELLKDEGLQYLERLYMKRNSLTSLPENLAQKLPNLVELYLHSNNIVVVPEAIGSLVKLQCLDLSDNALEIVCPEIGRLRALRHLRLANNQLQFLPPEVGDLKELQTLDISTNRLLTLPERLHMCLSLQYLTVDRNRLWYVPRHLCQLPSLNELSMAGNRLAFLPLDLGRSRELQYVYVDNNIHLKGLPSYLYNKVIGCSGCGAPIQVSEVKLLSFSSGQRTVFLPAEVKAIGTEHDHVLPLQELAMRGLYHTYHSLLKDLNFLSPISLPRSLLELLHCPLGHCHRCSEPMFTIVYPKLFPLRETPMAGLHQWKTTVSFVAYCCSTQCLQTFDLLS
UniProt Q96S21: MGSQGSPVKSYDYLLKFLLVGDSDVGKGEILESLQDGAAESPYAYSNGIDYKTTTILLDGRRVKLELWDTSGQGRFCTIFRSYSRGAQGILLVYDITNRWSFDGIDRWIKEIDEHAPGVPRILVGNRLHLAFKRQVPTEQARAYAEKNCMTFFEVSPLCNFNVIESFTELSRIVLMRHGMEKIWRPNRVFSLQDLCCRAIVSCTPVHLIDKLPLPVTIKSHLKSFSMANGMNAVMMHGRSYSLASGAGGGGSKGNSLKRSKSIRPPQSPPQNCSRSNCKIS
UniProt Q96GD4: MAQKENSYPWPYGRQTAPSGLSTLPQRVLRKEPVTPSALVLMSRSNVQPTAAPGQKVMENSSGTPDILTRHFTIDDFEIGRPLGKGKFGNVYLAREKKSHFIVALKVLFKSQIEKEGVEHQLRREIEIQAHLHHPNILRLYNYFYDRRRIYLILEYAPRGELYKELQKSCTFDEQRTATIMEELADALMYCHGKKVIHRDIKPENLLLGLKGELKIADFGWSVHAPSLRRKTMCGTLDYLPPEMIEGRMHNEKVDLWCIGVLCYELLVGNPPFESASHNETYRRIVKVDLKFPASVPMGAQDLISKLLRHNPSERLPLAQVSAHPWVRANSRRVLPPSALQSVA
UniProt Q92624: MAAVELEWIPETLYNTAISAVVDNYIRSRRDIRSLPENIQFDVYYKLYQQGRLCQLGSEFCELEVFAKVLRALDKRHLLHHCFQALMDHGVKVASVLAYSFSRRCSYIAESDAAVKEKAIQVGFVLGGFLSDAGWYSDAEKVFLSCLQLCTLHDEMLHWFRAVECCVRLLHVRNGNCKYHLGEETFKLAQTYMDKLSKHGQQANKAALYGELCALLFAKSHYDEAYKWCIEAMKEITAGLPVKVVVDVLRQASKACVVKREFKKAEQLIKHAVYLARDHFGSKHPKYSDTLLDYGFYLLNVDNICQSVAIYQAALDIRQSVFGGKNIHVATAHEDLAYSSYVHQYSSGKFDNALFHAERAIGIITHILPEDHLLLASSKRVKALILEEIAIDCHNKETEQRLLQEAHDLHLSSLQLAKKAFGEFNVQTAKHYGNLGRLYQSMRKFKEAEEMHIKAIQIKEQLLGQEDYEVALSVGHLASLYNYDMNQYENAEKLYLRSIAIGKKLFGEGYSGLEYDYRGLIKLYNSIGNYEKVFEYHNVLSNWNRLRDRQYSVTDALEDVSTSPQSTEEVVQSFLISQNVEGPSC
UniProt P30279: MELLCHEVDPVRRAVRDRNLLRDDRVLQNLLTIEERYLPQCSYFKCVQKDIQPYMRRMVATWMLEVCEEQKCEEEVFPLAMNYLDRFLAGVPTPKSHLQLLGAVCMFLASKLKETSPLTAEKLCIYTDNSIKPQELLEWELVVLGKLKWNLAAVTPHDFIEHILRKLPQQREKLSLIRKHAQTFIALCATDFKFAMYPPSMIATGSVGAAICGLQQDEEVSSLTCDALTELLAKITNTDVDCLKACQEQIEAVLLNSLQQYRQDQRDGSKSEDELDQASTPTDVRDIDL
UniProt Q8WXH5: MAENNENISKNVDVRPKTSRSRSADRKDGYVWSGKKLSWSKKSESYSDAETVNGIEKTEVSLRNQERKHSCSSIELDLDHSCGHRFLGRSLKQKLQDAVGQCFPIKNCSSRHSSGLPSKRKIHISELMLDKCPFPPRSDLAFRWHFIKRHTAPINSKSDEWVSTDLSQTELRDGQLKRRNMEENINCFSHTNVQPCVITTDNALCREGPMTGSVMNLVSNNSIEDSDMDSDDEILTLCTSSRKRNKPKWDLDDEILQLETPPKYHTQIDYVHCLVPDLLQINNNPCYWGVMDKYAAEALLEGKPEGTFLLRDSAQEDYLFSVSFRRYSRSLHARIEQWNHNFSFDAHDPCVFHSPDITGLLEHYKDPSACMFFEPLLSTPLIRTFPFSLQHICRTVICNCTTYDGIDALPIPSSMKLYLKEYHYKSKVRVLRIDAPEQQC
UniProt Q9Y2I1: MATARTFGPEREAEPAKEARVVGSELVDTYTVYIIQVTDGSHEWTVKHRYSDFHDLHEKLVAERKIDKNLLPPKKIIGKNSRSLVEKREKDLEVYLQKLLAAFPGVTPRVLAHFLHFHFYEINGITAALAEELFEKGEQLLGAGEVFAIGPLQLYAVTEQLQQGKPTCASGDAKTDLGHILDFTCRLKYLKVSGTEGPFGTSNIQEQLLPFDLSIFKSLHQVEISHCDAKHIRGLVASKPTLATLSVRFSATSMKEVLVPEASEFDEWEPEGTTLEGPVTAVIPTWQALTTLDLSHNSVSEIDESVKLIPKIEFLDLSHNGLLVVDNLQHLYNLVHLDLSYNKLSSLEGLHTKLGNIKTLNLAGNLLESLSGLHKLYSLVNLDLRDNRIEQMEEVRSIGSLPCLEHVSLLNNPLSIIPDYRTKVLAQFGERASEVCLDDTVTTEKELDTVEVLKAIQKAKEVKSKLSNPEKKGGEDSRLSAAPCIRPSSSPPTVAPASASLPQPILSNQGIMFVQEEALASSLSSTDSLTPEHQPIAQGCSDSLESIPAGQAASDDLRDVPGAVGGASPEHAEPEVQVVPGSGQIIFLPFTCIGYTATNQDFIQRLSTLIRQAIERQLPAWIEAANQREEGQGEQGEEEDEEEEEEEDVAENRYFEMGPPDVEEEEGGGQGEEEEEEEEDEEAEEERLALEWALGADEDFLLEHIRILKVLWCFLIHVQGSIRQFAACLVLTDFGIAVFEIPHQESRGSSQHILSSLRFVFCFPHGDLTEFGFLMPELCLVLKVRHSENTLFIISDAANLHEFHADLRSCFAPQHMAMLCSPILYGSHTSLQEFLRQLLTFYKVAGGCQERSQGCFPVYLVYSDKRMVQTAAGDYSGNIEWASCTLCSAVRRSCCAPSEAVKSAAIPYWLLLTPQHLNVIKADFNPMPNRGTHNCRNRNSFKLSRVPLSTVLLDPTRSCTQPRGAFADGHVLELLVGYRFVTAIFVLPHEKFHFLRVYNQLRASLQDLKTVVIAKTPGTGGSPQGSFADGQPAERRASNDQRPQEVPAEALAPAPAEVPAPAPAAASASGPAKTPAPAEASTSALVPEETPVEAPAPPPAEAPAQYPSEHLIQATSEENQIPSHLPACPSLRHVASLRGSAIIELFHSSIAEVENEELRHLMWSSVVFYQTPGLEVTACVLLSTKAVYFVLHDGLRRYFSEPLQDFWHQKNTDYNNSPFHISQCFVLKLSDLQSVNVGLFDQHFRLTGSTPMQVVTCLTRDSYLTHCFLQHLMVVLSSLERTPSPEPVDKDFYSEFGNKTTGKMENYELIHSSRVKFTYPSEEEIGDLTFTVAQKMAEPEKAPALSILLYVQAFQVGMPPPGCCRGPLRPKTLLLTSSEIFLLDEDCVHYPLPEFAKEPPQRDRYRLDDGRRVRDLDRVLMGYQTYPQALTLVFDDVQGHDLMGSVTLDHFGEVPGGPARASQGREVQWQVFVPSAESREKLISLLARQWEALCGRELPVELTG
UniProt P63167: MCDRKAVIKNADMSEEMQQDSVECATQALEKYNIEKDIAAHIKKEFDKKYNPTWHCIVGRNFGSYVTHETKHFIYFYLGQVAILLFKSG
UniProt Q13620: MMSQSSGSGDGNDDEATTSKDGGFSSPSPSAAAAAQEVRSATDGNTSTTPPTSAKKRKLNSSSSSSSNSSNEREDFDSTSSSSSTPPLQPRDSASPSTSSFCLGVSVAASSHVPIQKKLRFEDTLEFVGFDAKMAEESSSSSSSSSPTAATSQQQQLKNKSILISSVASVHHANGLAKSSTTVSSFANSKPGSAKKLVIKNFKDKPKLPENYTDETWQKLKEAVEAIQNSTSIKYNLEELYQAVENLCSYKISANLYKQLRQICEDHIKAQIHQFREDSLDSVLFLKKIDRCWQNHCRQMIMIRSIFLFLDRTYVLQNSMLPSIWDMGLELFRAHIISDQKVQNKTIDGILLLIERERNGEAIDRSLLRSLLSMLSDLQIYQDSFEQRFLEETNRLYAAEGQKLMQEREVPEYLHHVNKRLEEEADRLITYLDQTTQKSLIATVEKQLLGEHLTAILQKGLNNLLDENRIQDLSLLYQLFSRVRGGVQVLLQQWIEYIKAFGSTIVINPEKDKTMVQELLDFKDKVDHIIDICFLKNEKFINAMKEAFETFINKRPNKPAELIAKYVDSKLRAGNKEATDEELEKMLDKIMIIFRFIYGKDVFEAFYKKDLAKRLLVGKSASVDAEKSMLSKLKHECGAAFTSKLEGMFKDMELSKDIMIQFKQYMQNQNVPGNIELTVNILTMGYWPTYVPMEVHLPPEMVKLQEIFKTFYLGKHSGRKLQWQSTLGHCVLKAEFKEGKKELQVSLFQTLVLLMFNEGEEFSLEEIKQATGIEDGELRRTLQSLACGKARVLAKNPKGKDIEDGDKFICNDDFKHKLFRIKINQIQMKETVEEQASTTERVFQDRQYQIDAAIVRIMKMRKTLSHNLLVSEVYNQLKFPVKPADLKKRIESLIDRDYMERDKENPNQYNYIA
UniProt Q9H672: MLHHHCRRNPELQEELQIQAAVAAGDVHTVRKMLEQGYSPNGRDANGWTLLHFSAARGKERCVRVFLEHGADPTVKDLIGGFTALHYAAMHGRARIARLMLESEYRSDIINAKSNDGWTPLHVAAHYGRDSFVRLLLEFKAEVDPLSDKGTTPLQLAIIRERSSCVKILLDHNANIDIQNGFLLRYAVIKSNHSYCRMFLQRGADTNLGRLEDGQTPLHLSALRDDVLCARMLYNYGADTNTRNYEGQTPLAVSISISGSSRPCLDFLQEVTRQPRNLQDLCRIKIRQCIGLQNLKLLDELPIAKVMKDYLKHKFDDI
UniProt Q15370: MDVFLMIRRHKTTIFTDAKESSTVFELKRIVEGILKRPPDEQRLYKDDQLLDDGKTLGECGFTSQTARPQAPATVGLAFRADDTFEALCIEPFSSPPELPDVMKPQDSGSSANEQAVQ

Assay [1] addresses 3xFLAG-AMBRA1 (UniProt Q9C0C7). The assay is described as follows: affinity purification with mass spectrometry; anti-FLAG M2 beads, overnight at 4 C, total lysates of ATRT cells (BT12, BT16, CHLA06, CHLA266) expressing 3xFLAG-AMBRA1 against 3xFLAG alone; with and without the CRL inhibitor MLN4924 (interactors against substrates); on-bead digestion, DIA LC-MS.
The target of assay [2] is 3xFLAG-AMBRA1 (UniProt Q9C0C7). The assay is described as follows: affinity purification with mass spectrometry; anti-FLAG M2 beads, lysates of ATRT cell lines expressing 3xFLAG-AMBRA1 or 3xFLAG alone, overnight at 4C, washed with Tris buffer pH 7.4, on-bead digestion, DIA LC-MS; with and without the CRL inhibitor MLN4924.

Results are given in words; binding and its absence hold for the method and conditions named. In cells and extracts the contact can be indirect. A yes stands for co-enrichment or nearness to the bait. Other partners may have been found.

In the case of LRRC28 (from UniProt Q86X40 1-367), the binding result with 3xFLAG-AMBRA1 [1] is recorded as “binds”.

In the case of RAB40C (from UniProt Q96S21 1-281), the binding result in the assay with 3xFLAG-AMBRA1 [1] is given as “binds”.

In the case of AURKB (from UniProt Q96GD4 1-344), the binding result with 3xFLAG-AMBRA1 [2] is listed as “binds”.

For APPBP2 (from UniProt Q92624 1-585), the binding result with 3xFLAG-AMBRA1 [1] is reported as “binds”.

Take CCND2 (from UniProt P30279 1-289): the binding entry with 3xFLAG-AMBRA1 [1] is listed as “binds”.

With SOCS4 (from UniProt Q8WXH5 1-440), the binding entry with 3xFLAG-AMBRA1 [1] is on record as “binds”.

In the case of NISCH (from UniProt Q9Y2I1 1-1504), the binding entry with 3xFLAG-AMBRA1 [1] was “binds”.

For the molecule DYL1 (from UniProt P63167 1-89), the binding result with 3xFLAG-AMBRA1 [1] is given as “binds”.

For CUL4B (from UniProt Q13620 1-913), the binding result with 3xFLAG-AMBRA1 [1] is “binds”.

As for ASB7 (from UniProt Q9H672 1-318), the binding entry with 3xFLAG-AMBRA1 [1] is “binds”.

Take ELOB (from UniProt Q15370 1-118): in the assay with 3xFLAG-AMBRA1 [1], the binding result is given as “binds”.

B1: LRRC42 (protein, UniProt Q9Y546 1-428)
chain: MSYYLSSENHLDPGPIYMRENGQLHMVNLALDGVRSSLQKPRPFRLFPKGFSVELCMNREDDTARKEKTDHFIFTYTREGNLRYSAKSLFSLVLGFISDNVDHIDSLIGFPEQIAEKLFSAAEARQKFTEPGAGLRALQKFTEAYGSLVLCSLCLRNRYLVISEKLEEIKSFRELTCLDLSCCKLGDEHELLEHLTNEALSSVTQLHLKDNCLSDAGVRKMTAPVRVMKRGLENLTLLDLSCNPEITDAGIGYLFSFRKLNCLDISGTGLKDIKTVKHKLQTHIGLVHSKVPLKEFDHSNCKTEGWADQIVLQWERVTAEAVKPRETSEPRAAAQRFYGKRSRAEAPLKCPLADTHMNSSEKLQFYKEKAPDCHGPVLKHEAISSQESKKSKKRPFEESETEQNNSSQPSKQKYVCLAVEDWDLLNSY
Regarding B1, the binding result with 3xFLAG-AMBRA1 [1] is “binds”.

B2: MAIP1 (protein, UniProt Q8WWC4 97-291)
chain: STEEKPQQHQKTKMIVLGFSNPINWVRTRIKAFLIWAYFDKEFSITEFSEGAKQAFAHVSKLLSQCKFDLLEELVAKEVLHALKEKVTSLPDNHKNALAANIDEIVFTSTGDISIYYDEKGRKFVNILMCFWYLTSANIPSETLRGASVFQVKLGNQNVETKQLLSASYEFQREFTQGVKPDWTIARIEHSKLLE
Take B2: in the assay with 3xFLAG-AMBRA1 [1], the binding result is on record as “binds”.

B3: GTF2H3 (protein, UniProt Q13889 1-308)
chain: MVSDEDELNLLVIVVDANPIWWGKQALKESQFTLSKCIDAVMVLGNSHLFMNRSNKLAVIASHIQESRFLYPGKNGRLGDFFGDPGNPPEFNPSGSKDGKYELLTSANEVIVEEIKDLMTKSDIKGQHTETLLAGSLAKALCYIHRMNKEVKDNQEMKSRILVIKAAEDSALQYMNFMNVIFAAQKQNILIDACVLDSDSGLLQQACDITGGLYLKVPQMPSLLQYLLWVFLPDQDQRSQLILPPPVHVDYRAACFCHRNLIEIGYVCSVCLSIFCNFSPICTTCETAFKISLPPVLKAKKKKLKVSA
B3: the binding result with 3xFLAG-AMBRA1 [1] is on record as “binds”.

B4: ASB1 (protein, UniProt Q9Y576 1-335)
chain: MAEGGSPDGRAGPGSAGRNLKEWLREQFCDHPLEHCEDTRLHDAAYVGDLQTLRSLLQEESYRSRINEKSVWCCGWLPCTPLRIAATAGHGSCVDFLIRKGAEVDLVDVKGQTALYVAVVNGHLESTQILLEAGADPNGSRHHRSTPVYHASRVGRADILKALIRYGADVDVNHHLTPDVQPRFSRRLTSLVVCPLYISAAYHNLQCFRLLLLAGANPDFNCNGPVNTQGFYRGSPGCVMDAVLRHGCEAAFVSLLVEFGANLNLVKWESLGPESRGRRKVDPEALQVFKEARSVPRTLLCLCRVAVRRALGKHRLHLIPSLPLPDPIKKFLLHE
In the case of B4, the binding entry in the assay with 3xFLAG-AMBRA1 [1] was “binds”.

B5: WSB2 (protein, UniProt Q9NYS7 1-404)
chain: MEAGEEPLLLAELKPGRPHQFDWKSSCETWSVAFSPDGSWFAWSQGHCIVKLIPWPLEEQFIPKGFEAKSRSSKNETKGRGSPKEKTLDCGQIVWGLAFSPWPSPPSRKLWARHHPQVPDVSCLVLATGLNDGQIKIWEVQTGLLLLNLSGHQDVVRDLSFTPSGSLILVSASRDKTLRIWDLNKHGKQIQVLSGHLQWVYCCSISPDCSMLCSAAGEKSVFLWSMRSYTLIRKLEGHQSSVVSCDFSPDSALLVTASYDTNVIMWDPYTGERLRSLHHTQVDPAMDDSDVHISSLRSVCFSPEGLYLATVADDRLLRIWALELKTPIAFAPMTNGLCCTFFPHGGVIATGTRDGHVQFWTAPRVLSSLKHLCRKALRSFLTTYQVLALPIPKKMKEFLTYRTF
As to B5, the binding result in the assay with 3xFLAG-AMBRA1 [1] was “binds”.

B6: CCND3 (protein, UniProt P30281 1-292)
chain: MELLCCEGTRHAPRAGPDPRLLGDQRVLQSLLRLEERYVPRASYFQCVQREIKPHMRKMLAYWMLEVCEEQRCEEEVFPLAMNYLDRYLSCVPTRKAQLQLLGAVCMLLASKLRETTPLTIEKLCIYTDHAVSPRQLRDWEVLVLGKLKWDLAAVIAHDFLAFILHRLSLPRDRQALVKKHAQTFLALCATDYTFAMYPPSMIATGSIGAAVQGLGACSMSGDELTELLAGITGTEVDCLRACQEQIEAALRESLREASQTSSSPAPKAPRGSSSQGPSQTSTPTDVTAIHL
As for B6, the binding entry in the assay with 3xFLAG-AMBRA1 [1] is on record as “binds”.

B7: WSB1 (protein, UniProt Q9Y6I7 1-421)
chain: MASFPPRVNEKEIVRLRTIGELLAPAAPFDKKCGRENWTVAFAPDGSYFAWSQGHRTVKLVPWSQCLQNFLLHGTKNVTNSSSLRLPRQNSDGGQKNKPREHIIDCGDIVWSLAFGSSVPEKQSRCVNIEWHRFRFGQDQLLLATGLNNGRIKIWDVYTGKLLLNLVDHTEVVRDLTFAPDGSLILVSASRDKTLRVWDLKDDGNMMKVLRGHQNWVYSCAFSPDSSMLCSVGASKAVFLWNMDKYTMIRKLEGHHHDVVACDFSPDGALLATASYDTRVYIWDPHNGDILMEFGHLFPPPTPIFAGGANDRWVRSVSFSHDGLHVASLADDKMVRFWRIDEDYPVQVAPLSNGLCCAFSTDGSVLAAGTHDGSVYFWATPRQVPSLQHLCRMSIRRVMPTQEVQELPIPSKLLEFLSYRI
With B7, the binding result in the assay with 3xFLAG-AMBRA1 [1] is “binds”.

B8: RNF187 (protein, UniProt Q5TA31 1-235)
chain: MALPAGPAEAACALCQRAPREPVRADCGHRFCRACVVRFWAEEDGPFPCPECADDCWQRAVEPGRPPLSRRLLALEEAAAAPARDGPASEAALQLLCRADAGPLCAACRMAAGPEPPEWEPRWRKALRGKENKGSVEIMRKDLNDARDLHGQAESAAAVWKGHVMDRRKKALTDYKKLRAFFVEEEEHFLQEAEKEEGLPEDELADPTERFRSLLQAVSELEKKHRNLGLSMLLQ
Take B8: in the assay with 3xFLAG-AMBRA1 [1], the binding result is “binds”.

B9: LRRC41 (protein, UniProt Q15345 1-812)
chain: MAAPEAWRARSCWFCEVAAATTMEATSREAAPAKSSASGPNAPPALFELCGRAVSAHMGVLESGVWALPGPILQSILPLLNIYYLERIEETALKKGLSTQAIWRRLWDELMKTRPSSLESVTCWRAKFMEAFFSHVLRGTIDVSSDRRLCDQRFSPLLHSSRHVRQLTICNMLQGATELVAEPNRRVLETLASSLHTLKFRHLLFSDVAAQQSLRQLLHQLIHHGAVSQVSLYSWPVPESALFILILTMSAGFWQPGPGGPPCRLCGEASRGRAPSRDEGSLLLGSRRPRRDAAERCAAALMASRRKSEAKQMPRAAPATRVTRRSTQESLTAGGTDLKRELHPPATSHEAPGTKRSPSAPAATSSASSSTSSYKRAPASSAPQPKPLKRFKRAAGKKGARTRQGPGAESEDLYDFVFIVAGEKEDGEEMEIGEVACGALDGSDPSCLGLPALEASQRFRSISTLELFTVPLSTEAALTLCHLLSSWVSLESLTLSYNGLGSNIFRLLDSLRALSGQAGCRLRALHLSDLFSPLPILELTRAIVRALPLLRVLSIRVDHPSQRDNPGVPGNAGPPSHIIGDEEIPENCLEQLEMGFPRGAQPAPLLCSVLKASGSLQQLSLDSATFASPQDFGLVLQTLKEYNLALKRLSFHDMNLADCQSEVLFLLQNLTLQEITFSFCRLFEKRPAQFLPEMVAAMKGNSTLKGLRLPGNRLGNAGLLALADVFSEDSSSSLCQLDISSNCIKPDGLLEFAKRLERWGRGAFGHLRLFQNWLDQDAVTAREAIRRLRATCHVVSDSWDSSQAFADYVSTM
Take B9: in the assay with 3xFLAG-AMBRA1 [1], the binding result was “binds”.
